Results are given in words; binding and its absence hold for the method and conditions named. In cells and extracts the contact can be indirect. Some entries that bind do so weakly or less than the wild type. Values belong to the molecule of their own block, whether it stands above or below them.
How the values were obtained:
[1] = biological target: T1, proteolipid protein (PLP) (human (endogenous in HOG)) (UniProt P60201); experiment: co-IP; GFP-MAL2/HOG cell lysate (50 mM Tris-HCl pH 6.8, 150 mM NaCl, 1% Triton X-100); immunoprecipitated with monoclonal anti-PLP or polyclonal anti-GFP antibody, 2 h at 4°C, captured on protein A-Sepharose; immunoblot with anti-PLP or anti-GFP; controls were preimmune mouse or rabbit serum and a sample without primary antibody
T1 sequence: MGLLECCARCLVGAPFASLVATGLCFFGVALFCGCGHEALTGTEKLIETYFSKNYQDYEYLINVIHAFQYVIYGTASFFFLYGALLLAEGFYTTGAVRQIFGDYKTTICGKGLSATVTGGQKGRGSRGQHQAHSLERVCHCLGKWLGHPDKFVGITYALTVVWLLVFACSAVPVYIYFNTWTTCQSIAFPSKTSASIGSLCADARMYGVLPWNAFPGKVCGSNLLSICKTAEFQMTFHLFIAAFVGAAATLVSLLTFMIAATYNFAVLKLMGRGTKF

Amino acid sequences for entries named in this document (tags omitted).
UniProt Q969L2: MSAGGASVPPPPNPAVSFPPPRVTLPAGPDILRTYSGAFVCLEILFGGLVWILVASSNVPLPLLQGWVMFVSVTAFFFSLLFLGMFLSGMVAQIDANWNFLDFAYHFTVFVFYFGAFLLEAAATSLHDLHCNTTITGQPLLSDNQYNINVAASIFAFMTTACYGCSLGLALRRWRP

[2] = biological target: GFP-MAL2 (green fluorescent protein fused to the amino-terminal end of MAL2) (UniProt Q969L2); experiment: as above

binding [1]: binds
Molecule: GFP-MAL2 (green fluorescent protein fused to the amino-terminal end of MAL2) (from UniProt Q969L2 1-176)

binding [2]: binds
B1: proteolipid protein (PLP) (protein, UniProt P60201 1-277)
chain: T1 sequence
